Source: PubChem BioAssay AID1159506 (NCATS, 2015).

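Luminescence from an EWS-FLI1 target-promoter (NR0B1) reporter, set against a CMV-promoter reporter, two days after silencing single genes in TC32 Ewing sarcoma cells. Each siRNA was applied at 20 nM. A z-score of the log NR0B1-over-CMV signal, less the median of siRNAs with the same seed; more negative means a stronger specific loss of the NR0B1 reporter.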

The strongest results of the screen are mostly left out here. Sequences are the guide (antisense) strand, without overhang.

UUCUUGUUCAAAGUCCUCU against EVA1A gave seed-corrected z-score 0.2856. UGUUAGACAGGUCAAGCUC against LRWD1 read seed-corrected z-score 0.9549. AAAGAUACCGGUCUCCAGG against LRIT1 gave seed-corrected z-score -0.1334. With UAUACAUCACGCUCCAGCC against CYP26C1 the assay gave seed-corrected z-score 1.027. UCAUCUAUUGGUUGACUGC against SKAP2 read seed-corrected z-score 1.054. UUCUUCUGUACCACGAUCU against RBCK1 read seed-corrected z-score -0.316.

Result for AUAGAACUCGUUGAAGGCC against MUC5B was seed-corrected z-score 0.3984. For UGAGAUGUUUGAUACUUUC against UTP23 the result was seed-corrected z-score -0.4134. AUCAGGGUAGCUGGAAUGC against SPIB read seed-corrected z-score -1.1. For UCUGCUCUAAGAGCAGCUU against LOC729558 the result was seed-corrected z-score 0.7314. With UUUAUCACAUUGUUAUUCC against PNLIPRP1 the assay gave seed-corrected z-score -0.4869. Result for UUGAGGUCCAAGAGGAAGC against SLC12A8 was seed-corrected z-score -0.724.

AGAGGUUACACCUGUCACU against SDF2 gave seed-corrected z-score -0.006701. AAGAGAAAAGUGUAGGUCC against FAM53B read seed-corrected z-score -0.3102. With UCUAGGACUAGAGUGACCU against FANCD2OS the assay gave seed-corrected z-score -0.2406. UCCCGGAUACUUCUACUGC against THSD4 read seed-corrected z-score 0.0908. Result for AGAUCUGCCAUCGUGUUCG against DBNDD1 was seed-corrected z-score -0.5749. With UUCGUGGAUUGGAUCAUUG against IQGAP1 the assay gave seed-corrected z-score 0.1694.

For AAAGUUGUCCUUGAACAUG against TUBG1 the result was seed-corrected z-score 0.06188. For AGUUCGUUCAGCUGAAAGC against LTF the result was seed-corrected z-score 1.423. Result for AAGUUUGUAAAUCUUGUCU against INSL5 was seed-corrected z-score 0.4023. For AUGGAGUUCAAGUCGUUGG against ASCL1 the result was seed-corrected z-score -0.4543. For UGUCUUUCAAGAGUGGGUC against ZNF304 the result was seed-corrected z-score -1.43. Result for AUCAUGUUUAGAAAGGGUG against ZNF33B was seed-corrected z-score -0.6181.

With UGCUCGAUAACAACGGUCG against C11orf31 the assay gave seed-corrected z-score 0.3088. For UACAUAGGCAGACUGGUCC against NXF5 the result was seed-corrected z-score 1.655. Result for UUUCUUUCGGGAUUUUAUC against LNP1 was seed-corrected z-score 0.631. UACGGCUCCAUAAACCUGU against MRPS2 gave seed-corrected z-score -0.7053. For UCAUUGACUAAGCUGAUUC against SUV39H2 the result was seed-corrected z-score -0.291. UUGGUAGGCUUUGAAAAAC against DNAJC19P9 gave seed-corrected z-score -0.1527.

UCUCAUAGAAGUCCUGUGC against PHKG1 gave seed-corrected z-score -0.08342. UAGCUGAAGACACCUGUCC against OR3A3 read seed-corrected z-score -0.3733. UUCGAUAUAUGAUUCUUCC against KIAA1143 read seed-corrected z-score -0.7372. UCAAGUUGAAUGCAGUUAC against OSMR gave seed-corrected z-score 0.12. UCAUGGAUAGACUCCUUGC against RPS6KB2 gave seed-corrected z-score 0.496. With UAUAAUGCUUCAAUAAUUG against LOC728339 the assay gave seed-corrected z-score 0.07645.

With UGCUGUAGAAAUGCGAUAC against SAMHD1 the assay gave seed-corrected z-score 0.4642. UCAAUUUCUUGAACCGUGC against ISOC1 read seed-corrected z-score 0.01105. Result for UCAGUCUCCCUGAUCAGCC against GPC2 was seed-corrected z-score -0.4914. UGGGUUGUAAGCCUUCCAC against ALOX15B gave seed-corrected z-score -0.1443. For UAUGCAUCCAUAUUCUUCC against C9orf72 the result was seed-corrected z-score 1.27. For AAGCAGAUACUUACGCACC against SLC12A9 the result was seed-corrected z-score 1.113.

UCGGUGACACGAUUGAUCC against OGDH gave seed-corrected z-score -0.2206. For UUUCAUUCUGCUUACUCUC against GJB6 the result was seed-corrected z-score -0.388.